Publication PMC5789973

Protein sequences, listed by entry. Tags and fused reporters are not part of them.
UniProt P46938: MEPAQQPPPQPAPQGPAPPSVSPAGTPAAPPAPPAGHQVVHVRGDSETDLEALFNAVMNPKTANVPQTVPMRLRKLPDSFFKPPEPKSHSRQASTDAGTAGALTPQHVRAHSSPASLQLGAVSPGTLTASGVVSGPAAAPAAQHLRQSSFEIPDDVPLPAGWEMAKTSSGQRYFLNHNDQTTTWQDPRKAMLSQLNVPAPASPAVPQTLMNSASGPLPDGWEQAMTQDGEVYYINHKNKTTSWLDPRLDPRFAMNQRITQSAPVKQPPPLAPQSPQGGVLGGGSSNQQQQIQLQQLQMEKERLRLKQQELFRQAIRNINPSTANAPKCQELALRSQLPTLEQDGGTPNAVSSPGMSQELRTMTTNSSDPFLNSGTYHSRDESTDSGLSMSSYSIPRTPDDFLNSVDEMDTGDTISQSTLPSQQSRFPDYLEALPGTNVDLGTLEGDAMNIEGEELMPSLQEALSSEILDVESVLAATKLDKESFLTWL

Biological target: YAP (mouse (endogenous in E14Tg2a ESC and in iPSC from MEFs)) (UniProt P46938)
Assay: affinity purification with mass spectrometry; YAP immunoprecipitates (Protein G Dynabeads) from whole cell lysates of ESC transfected with empty vector or zsRASSF1A; Orbitrap; intensities normalised to YAP

- binding: binds
B1: TCF3 (protein, UniProt Q9Z1J1 1-584)
chain: MPQLGGGRGGAGGGGGGSGAGATSGGDDLGANDELIPFQDEGGEEQEPSSDTASAQRDLDEVKSSLVNESENQSSSSDSEAERRPQPARDAFQKPRDYFAEVRRPQDGAFFKGGAYPGYPFLMIPDLSSPYLSNGPLSPGGARTYLQMKWPLLDVPSSATVKDTRSPSPAHLSNKVPVVQHPHHMHPLTPLITYSNDHFSPASPPTHLSPEIDPKTGIPRPPHPSELSPYYPLSPGAVGQIPHPLGWLVPQQGQPMYSLPPGGFRHPYPALAMNASMSSLVSSRFPHMVAPAHPGLPTSGIPHPAIVSPIVKQEPAAPSLSPAVSAKSPVTVKKEEEKKPHVKKPLNAFMLYMKEMRAKVVAECTLKESAAINQILGRKWHNLSREEQAKYYELARKERQLHAQLYPTWSARDNYGKKKKRKREKQLSQTQSQQQIQEAEGALASKSKKPCIQYLPPEKPCDSPASSHGSALDSPATPSAALASPAAPAATHSEQAQPLSLTTKPEARAQLALHSAAFLSAKAAASNSSQMGSQPPLLSRPLPLGSMPAALLTSPPTFPATLHAHQALPVLQAQPLSLVTKSAH

These are yes or no findings as the source states them, for the method shown. Binding seen in cells or lysates may run through a third protein. These calls come from enrichment with a bait or labelling near it, and not all partners need be listed.
